The values below come from article doi:10.1101/2021.06.04.447173.

These are yes or no findings as the source states them, for the method shown. In cells and extracts the contact can be indirect. A yes stands for co-enrichment or nearness to the bait. Other partners may have been found.

The target of this assay is MOG-7::degron::GFP (C. elegans (endogenous in worms)). Kind of assay: affinity purification with mass spectrometry.

B1: STIP-1 (protein, UniProt Q17784 1-830)
chain: MEDDDGRESFEINDMDLEYAMNPGGRRRFQNKDQATYGVFAPDSDDDDDEQGTSRGPYKKRSKISAPMSFVSGGIQQGNKIDKDDPASLNLNLGGEKKPKEDDEGSIQIDFDKRTKKAPKQNGAQVFAGMRSSANHGAADINQFGSWMRGDGNSNKIMKMMQAMGYKPGEGLGAQGQGIVEPVQAQLRKGRGAVGAYGKESTATGPKFGESAADAQKRMAQEGTSSRPTNDDQEKSGLKIKGSWKKSQTVKTKYRTIEDVMEEGMSASRPASHQQSQQYSNIKVIDMTGKQQKIYSGYDSFSMKTRSEYDTVDDEERTVFDVPELIHNLNLLVDLTEEGIRRSNQQLISLKDQTTALEYDLQQVQKSLGTEEQEAQHIKDVYELIDGFSSNRSPSMEECQELFRRLRSEFPHEYELYSLETVAIPTVLPLIQKYFVAWKPLEDKNYGCELISTWRDILDDSKNGRKMTFGHNKTKGDEIRAYDRIIWEGILPSIRRACLQWDPSTQMHEMIELVEQWIPLLSAWITENILEQLVVPKIAERVNQWDPMTDEIPIHEWLVPWLVLLGDRIQTVMPPIRQKLSKALKLWDPMDRSALETLRPWQNVWSAATFSAFIAQNIVPKLGVALDTMELNPTMNPEYPEWTACMEWLEFTHPDAIANIVTKYFFPRFYNCLCLWLDSPGVDYNEVKRWYGSWKARIPQVLVNYPTVNENLRRSMIAIGRSLQGEKVGGLQATPIAPMAPPPPMAPHFTQAAPVQKLSLKEIIEYTAGKNGFTYHPQKDRYKDGRQVFWFGALSIYLDSEMVYVMDPIEFVWRPSGLNELIQMAQGAQG
Regarding B1, the binding entry is given as “binds”.
